This is an account of results in the supplement of paper PMC12819154, “High-throughput peptide-centric local stability assay extends protein–ligand identification to membrane proteins, tissues and bacteria” (Nature Structural & Molecular Biology, 2025).

Amino acid sequences for entries named in this document (tags omitted). A change or cut given only in a name is not applied to a line headed by its entry.
UniProt P55809: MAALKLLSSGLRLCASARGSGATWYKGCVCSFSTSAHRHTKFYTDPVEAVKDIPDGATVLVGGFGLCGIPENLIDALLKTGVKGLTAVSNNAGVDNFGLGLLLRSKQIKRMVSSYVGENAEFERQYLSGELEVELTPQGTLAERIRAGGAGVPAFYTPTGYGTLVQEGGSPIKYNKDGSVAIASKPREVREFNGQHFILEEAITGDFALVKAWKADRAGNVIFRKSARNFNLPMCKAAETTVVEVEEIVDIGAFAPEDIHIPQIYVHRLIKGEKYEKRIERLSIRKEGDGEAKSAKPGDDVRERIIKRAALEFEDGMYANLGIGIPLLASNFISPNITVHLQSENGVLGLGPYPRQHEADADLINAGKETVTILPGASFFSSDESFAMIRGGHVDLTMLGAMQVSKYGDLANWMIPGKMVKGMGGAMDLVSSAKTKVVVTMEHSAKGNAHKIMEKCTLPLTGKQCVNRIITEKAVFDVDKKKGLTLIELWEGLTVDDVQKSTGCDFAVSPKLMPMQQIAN
UniProt P62324: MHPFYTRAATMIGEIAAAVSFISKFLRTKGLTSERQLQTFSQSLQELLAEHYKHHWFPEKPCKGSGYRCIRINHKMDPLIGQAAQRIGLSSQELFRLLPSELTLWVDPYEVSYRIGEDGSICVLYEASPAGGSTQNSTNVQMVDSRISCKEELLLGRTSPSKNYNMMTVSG
UniProt P79522: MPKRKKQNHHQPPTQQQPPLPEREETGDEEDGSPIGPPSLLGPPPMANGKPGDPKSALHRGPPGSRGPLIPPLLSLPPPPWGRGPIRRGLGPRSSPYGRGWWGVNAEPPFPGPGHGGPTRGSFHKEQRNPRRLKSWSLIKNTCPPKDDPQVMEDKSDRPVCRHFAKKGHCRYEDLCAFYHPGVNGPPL
UniProt P55160: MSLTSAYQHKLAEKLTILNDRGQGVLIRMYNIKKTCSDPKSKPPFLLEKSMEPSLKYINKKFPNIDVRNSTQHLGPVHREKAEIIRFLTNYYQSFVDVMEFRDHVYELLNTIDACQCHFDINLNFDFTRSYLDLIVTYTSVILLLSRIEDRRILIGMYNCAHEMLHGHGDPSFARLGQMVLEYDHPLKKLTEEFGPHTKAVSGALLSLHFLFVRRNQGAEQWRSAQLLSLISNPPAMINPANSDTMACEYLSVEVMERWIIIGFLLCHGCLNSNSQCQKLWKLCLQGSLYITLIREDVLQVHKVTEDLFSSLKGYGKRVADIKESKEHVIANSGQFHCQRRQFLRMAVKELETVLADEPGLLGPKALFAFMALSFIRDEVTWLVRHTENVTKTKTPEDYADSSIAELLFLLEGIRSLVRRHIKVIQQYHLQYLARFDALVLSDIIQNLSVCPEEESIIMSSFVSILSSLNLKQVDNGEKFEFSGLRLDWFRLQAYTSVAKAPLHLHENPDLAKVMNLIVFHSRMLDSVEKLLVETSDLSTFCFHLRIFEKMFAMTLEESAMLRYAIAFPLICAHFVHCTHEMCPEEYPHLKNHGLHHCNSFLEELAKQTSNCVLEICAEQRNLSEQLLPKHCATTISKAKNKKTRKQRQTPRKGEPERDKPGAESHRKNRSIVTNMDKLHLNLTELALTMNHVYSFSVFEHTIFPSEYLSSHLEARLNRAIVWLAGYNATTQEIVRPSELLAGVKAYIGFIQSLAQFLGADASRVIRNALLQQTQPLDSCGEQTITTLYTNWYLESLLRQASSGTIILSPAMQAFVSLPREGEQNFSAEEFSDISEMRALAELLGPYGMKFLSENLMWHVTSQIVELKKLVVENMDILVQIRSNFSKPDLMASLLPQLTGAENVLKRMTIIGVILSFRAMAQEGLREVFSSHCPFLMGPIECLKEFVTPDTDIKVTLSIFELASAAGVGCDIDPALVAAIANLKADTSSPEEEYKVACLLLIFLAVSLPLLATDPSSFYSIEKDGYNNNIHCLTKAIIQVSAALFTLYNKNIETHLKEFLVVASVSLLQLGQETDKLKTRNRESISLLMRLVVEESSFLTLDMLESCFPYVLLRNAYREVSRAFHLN
UniProt P67870, whole entry: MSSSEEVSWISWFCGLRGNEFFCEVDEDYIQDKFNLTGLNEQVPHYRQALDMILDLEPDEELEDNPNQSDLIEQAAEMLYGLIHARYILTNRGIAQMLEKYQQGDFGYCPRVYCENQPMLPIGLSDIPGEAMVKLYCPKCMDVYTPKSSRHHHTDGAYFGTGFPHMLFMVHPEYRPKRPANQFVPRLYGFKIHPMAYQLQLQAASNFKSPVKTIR
UniProt P61981: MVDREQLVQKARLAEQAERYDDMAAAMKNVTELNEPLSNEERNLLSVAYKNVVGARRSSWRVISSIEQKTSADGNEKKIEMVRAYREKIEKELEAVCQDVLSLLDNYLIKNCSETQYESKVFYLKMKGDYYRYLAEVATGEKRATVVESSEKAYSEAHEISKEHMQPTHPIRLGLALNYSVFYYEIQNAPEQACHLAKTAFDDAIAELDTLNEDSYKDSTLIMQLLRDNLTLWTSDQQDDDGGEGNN
UniProt P54920: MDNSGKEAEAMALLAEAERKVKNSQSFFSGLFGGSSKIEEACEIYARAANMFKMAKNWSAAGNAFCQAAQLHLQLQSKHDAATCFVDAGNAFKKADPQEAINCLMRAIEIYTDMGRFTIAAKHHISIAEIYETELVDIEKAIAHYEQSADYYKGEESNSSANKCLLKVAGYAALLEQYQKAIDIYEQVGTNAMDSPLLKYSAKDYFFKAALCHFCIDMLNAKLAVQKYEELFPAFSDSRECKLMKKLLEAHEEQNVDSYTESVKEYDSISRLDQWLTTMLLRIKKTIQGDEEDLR
UniProt P55198: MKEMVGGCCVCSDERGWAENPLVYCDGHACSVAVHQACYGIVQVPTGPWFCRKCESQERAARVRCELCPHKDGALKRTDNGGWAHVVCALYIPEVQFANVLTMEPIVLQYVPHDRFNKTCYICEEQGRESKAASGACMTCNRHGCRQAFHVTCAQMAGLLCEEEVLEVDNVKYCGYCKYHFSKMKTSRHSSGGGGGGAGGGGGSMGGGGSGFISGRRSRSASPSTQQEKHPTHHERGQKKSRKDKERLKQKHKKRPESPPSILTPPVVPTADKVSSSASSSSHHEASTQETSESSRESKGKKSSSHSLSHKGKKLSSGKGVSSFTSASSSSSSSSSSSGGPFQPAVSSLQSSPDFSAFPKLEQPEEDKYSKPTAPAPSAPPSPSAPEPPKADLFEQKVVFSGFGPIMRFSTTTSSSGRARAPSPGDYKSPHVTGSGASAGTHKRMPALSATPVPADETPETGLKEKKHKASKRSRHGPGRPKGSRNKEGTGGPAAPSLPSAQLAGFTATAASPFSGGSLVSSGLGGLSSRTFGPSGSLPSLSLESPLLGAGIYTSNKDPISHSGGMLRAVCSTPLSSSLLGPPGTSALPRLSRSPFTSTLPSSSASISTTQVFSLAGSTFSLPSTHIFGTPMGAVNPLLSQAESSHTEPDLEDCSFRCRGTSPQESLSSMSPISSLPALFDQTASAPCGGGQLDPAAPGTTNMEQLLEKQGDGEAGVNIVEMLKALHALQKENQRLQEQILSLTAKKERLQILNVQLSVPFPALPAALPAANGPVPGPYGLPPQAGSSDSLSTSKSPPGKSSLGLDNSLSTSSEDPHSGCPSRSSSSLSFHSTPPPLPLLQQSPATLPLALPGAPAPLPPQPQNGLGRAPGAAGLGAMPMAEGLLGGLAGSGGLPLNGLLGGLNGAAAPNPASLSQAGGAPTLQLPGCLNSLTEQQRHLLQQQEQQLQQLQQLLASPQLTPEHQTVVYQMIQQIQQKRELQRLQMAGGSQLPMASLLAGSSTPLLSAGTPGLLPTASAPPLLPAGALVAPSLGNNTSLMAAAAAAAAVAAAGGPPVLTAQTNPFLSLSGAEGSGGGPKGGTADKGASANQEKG
UniProt P54886: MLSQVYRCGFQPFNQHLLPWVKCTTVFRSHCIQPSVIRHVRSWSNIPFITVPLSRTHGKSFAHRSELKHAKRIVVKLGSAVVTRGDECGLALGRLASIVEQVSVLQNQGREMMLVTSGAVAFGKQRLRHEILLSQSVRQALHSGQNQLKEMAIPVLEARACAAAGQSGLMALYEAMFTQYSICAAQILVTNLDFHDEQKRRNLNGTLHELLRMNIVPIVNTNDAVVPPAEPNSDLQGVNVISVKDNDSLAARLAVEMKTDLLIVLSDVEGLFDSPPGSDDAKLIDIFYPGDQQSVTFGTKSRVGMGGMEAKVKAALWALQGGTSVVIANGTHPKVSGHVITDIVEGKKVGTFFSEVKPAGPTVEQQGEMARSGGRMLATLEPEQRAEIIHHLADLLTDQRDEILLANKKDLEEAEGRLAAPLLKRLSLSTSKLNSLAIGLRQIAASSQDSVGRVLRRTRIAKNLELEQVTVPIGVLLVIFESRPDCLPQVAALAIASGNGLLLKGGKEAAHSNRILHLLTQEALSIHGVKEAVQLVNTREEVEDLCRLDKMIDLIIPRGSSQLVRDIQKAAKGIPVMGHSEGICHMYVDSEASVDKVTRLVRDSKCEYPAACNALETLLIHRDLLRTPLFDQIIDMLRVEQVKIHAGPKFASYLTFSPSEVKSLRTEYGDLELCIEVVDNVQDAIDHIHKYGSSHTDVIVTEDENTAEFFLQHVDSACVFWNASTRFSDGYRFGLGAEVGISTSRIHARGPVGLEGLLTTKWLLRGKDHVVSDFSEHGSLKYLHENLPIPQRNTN
UniProt P57082: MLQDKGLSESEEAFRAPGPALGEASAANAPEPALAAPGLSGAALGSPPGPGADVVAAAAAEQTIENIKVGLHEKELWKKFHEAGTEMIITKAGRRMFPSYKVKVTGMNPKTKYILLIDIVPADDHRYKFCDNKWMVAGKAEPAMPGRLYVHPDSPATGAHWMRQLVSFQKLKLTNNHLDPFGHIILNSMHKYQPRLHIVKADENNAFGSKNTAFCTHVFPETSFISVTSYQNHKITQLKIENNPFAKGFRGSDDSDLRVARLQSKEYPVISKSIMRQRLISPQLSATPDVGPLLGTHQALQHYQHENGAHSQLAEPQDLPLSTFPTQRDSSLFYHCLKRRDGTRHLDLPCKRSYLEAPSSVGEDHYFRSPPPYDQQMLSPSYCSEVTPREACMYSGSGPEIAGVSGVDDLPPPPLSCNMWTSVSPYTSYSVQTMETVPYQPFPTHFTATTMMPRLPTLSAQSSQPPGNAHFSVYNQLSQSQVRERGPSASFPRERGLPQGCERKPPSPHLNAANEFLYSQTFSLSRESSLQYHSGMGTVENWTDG
UniProt P63313: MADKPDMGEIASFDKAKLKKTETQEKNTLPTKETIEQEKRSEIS
UniProt P67775, whole entry: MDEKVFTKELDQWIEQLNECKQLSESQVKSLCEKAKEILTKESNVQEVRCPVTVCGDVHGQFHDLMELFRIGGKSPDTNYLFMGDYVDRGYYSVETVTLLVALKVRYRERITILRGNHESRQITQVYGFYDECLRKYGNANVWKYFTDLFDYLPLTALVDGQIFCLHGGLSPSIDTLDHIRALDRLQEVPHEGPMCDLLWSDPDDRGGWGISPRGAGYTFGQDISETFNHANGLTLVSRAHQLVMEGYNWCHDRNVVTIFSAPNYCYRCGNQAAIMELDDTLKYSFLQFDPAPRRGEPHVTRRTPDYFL
UniProt P56181: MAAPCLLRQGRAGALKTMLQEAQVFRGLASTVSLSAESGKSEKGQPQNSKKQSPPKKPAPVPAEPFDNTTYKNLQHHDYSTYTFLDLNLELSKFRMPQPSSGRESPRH
UniProt P54727: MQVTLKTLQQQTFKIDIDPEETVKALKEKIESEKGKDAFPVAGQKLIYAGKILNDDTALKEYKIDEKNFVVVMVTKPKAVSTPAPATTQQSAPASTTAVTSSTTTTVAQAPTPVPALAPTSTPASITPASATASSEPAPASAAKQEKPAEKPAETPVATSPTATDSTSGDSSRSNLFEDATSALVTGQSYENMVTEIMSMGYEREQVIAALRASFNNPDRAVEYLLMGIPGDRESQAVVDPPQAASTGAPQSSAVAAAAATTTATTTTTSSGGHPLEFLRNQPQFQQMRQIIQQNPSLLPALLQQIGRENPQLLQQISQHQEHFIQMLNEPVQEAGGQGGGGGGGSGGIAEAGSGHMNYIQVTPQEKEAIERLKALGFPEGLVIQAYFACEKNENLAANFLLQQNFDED
UniProt P57086: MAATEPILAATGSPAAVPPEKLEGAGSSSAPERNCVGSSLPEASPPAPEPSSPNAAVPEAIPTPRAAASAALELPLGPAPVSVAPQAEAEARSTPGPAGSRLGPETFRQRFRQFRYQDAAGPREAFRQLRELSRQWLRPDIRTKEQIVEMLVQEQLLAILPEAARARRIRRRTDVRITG
UniProt P56962: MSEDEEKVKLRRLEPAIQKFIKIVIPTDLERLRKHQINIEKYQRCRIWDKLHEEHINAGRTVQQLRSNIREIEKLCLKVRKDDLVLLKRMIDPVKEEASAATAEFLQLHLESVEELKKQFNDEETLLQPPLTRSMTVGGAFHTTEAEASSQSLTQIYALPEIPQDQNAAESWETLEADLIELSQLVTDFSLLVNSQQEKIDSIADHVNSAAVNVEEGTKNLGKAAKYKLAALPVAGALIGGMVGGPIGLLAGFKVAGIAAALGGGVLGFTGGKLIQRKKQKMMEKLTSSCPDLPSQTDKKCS

This is one part of the list. Small differences around the control level are noise.

Compound in the assay: Cc1nc(Nc2ncc(C(=O)Nc3c(C)cccc3Cl)s2)cc(N2CCN(CCO)CC2)n1 [dasatinib]
Nature of the assay: log2 fold change of tryptic peptide abundance, ligand vs vehicle (limited proteolysis) (log2 ratio); higher = more trypsin-susceptible (destabilized). The conditions noted are these: ligand concentration: 5 uM; sample: K562 cleared lysate.
Consider “UniProt P60891 (peptide sequence: VTSIADRLNVDFALIHK, peptide start residue: 178)”, for which the log2 fold change amounted to 0.118. With “OXCT1 (peptide sequence: QHEADADLINAGK, peptide start residue: 356) (UniProt P55809)”, the log2 fold change was 0.438. To “UniProt P60660 (peptide sequence: VFDKEGNGTVMGAEIR, peptide start residue: 95)” belongs 0.186; to “BTG1 (peptide sequence: MHPFYTR, peptide start residue: 1) (UniProt P62324)”, -0.0501; to “UniProt P62195 (peptide sequence: EVIELPVKHPELFEALGIAQPK, peptide start residue: 163)”, 0.113. To “PRR3 (peptide sequence: NTCPPKDDPQVMEDK, peptide start residue: 141) (UniProt P79522)” belongs -0.0686; to “UniProt P57729 (peptide sequence: ATIGVDFALK, peptide start residue: 56)”, -0.0119.

As to “NCKAP1L (peptide sequence: HCATTISK, peptide start residue: 631) (UniProt P55160)”, the log2 fold change was found to be 0.147.

With “UniProt P62995 (peptide sequence: SRGFAFVYFENVDDAK, peptide start residue: 158)”, the log2 fold change was -0.657.

As for “RPL7A (peptide sequence: KTCTTVAFTQVNSEDK, peptide start residue: 197) (UniProt P62424)”, the log2 fold change is -0.207.

As for “CSNK2B (peptide sequence: GIAQMLEK, peptide start residue: 93) (UniProt P67870)”, the log2 fold change was -0.37.

In the case of “SRP54 (peptide sequence: MIQHAVFK, peptide start residue: 74) (UniProt P61011)”, the log2 fold change was -0.273. Under “MRPS5 (peptide sequence: VEADMIQQR, peptide start residue: 168) (UniProt P82675)” stands 0.309; under “UniProt P62280 (peptide sequence: YYKNIGLGFKTPK, peptide start residue: 36)”, 0.249; under “UniProt P62805 (peptide sequence: ISGLIYEETR, peptide start residue: 47)”, 0.0417.

Turning to “CASP9 (peptide sequence: QMPGCFNFLR, peptide start residue: 399) (UniProt P55211)”, the log2 fold change is -0.0944.

With “PSMD4 (peptide sequence: LQAQQDAVNIVCHSKTR, peptide start residue: 26) (UniProt P55036)”, the log2 fold change was -0.797. On to “UniProt P62273 (peptide sequence: YGLNMCR, peptide start residue: 34)”, for which the log2 fold change came to 0.0553. As for “UniProt P61981 (peptide sequence: NCSETQYESK, peptide start residue: 111)”, the log2 fold change was 0.0877. Under “UniProt P61201 (peptide sequence: IDQVNQLLELDHQKR, peptide start residue: 402)” stands -0.142. To “NAPA (peptide sequence: AALCHFCIDMLNAK, peptide start residue: 209) (UniProt P54920)” belongs -0.23; to “UniProt P62256 (peptide sequence: VRVDLPDKYPFK, peptide start residue: 53)”, -0.203.

With “UniProt P55198 (peptide sequence: SPHVTGSGASAGTHKR, peptide start residue: 429)”, the log2 fold change was -0.686.

For the target “ALDH18A1 (peptide sequence: FGLGAEVGISTSR, peptide start residue: 733) (UniProt P54886)”, the log2 fold change is -0.265.

Take “UniProt P57082 (peptide sequence: AGRRMFPSYK, peptide start residue: 92)”: the log2 fold change is -0.0915. In the case of “UniProt P63313 (peptide sequence: ETIEQEKR, peptide start residue: 33)”, the log2 fold change was found to be 0.0734. Under “PPP2CA (peptide sequence: QITQVYGFYDECLRK, peptide start residue: 119) (UniProt P67775)” stands 0.0946; under “MRPS15 (peptide sequence: RNPDSPAK, peptide start residue: 240) (UniProt P82914)”, 0.26; under “NDUFV3 (peptide sequence: GLASTVSLSAESGK, peptide start residue: 27) (UniProt P56181)”, 0.133.

“UniProt P62750 (peptide sequence: VNTLIRPDGEKK, peptide start residue: 124)”: the log2 fold change was -0.0583. To “UniProt P56706 (peptide sequence: FVDAREIKK, peptide start residue: 166)” belongs -0.0319; to “UniProt P59998 (peptide sequence: ELLLQPVTISR, peptide start residue: 45)”, -0.0947.

Regarding “UniProt P62330 (peptide sequence: QDLPDAMKPHEIQEK, peptide start residue: 124)”, the log2 fold change is -0.452.

In the case of “RAD23B (peptide sequence: NQPQFQQMR, peptide start residue: 281) (UniProt P54727)”, the log2 fold change is -0.0713. Under “SCAND1 (peptide sequence: YQDAAGPR, peptide start residue: 116) (UniProt P57086)” stands 0.0635; under “STX17 (peptide sequence: LTSSCPDLPSQTDKKCS, peptide start residue: 286) (UniProt P56962)”, -0.302. For “RAB8A (peptide sequence: LALDYGIK, peptide start residue: 139) (UniProt P61006)”, the log2 fold change is -0.0982.
